The nature of this experiment: modulators of CD8 T cell-vesicle binding, confirmation, cherry-picked primary hits, two concentrations (AID 2810).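 For all read-outs here: lower values mean blocking of vesicle binding.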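 For percent response (vesicle binding): ratio of mean FL2 vesicle stain of CD8+ cells to that row's control.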 The settings on record: 2C CD8+ T cell-vesicle binding, flow cytometry; for double positive events: CD8+/vesicle+ events.
Where [1] appears, read: at 15.4 µM, stronger effect = lower value.

The list shows a part of the results. The main result of the screen is listed elsewhere. These columns were measured beside it and carry no call.

For the setting “at 7.7 µM”, `CCC(C)Sc1ccc(-c2nc3cc(C)ccn3c2NC2CCCCC2)cc1` (stereo not drawn) had a double positive events of 12.6% and a percent response (vesicle binding) of 167%. Also, the double positive events under setting [1] was 17%.

For the compound `O=C(/C=C/c1ccc(F)cc1)N1CCN(Cc2ccccc2)CC1`, for the setting “at 7.7 µM”, the double positive events turned out to be 24.6% and the percent response (vesicle binding) was 362%. Besides, the double positive events under setting [1] came out at 6.8%.

`O=C(COC(=O)CCCSc1nc2ccccc2[nH]1)Nc1cccc(F)c1`: the double positive events is, setting by setting: (at 7.7 µM) 4.8%; under setting [1], 13.2%. Moreover, the percent response (vesicle binding) (at 7.7 µM) amounted to 96.4%.

As for `COc1ccccc1NC(=O)c1ccc(NC(=O)CSc2ncccn2)cc1`, under “at 7.7 µM”, the double positive events came to 10.6% and the percent response (vesicle binding) was 421%. The compound further came in with a double positive events under setting [1] of 27.9%.

In the case of `CCOC(=O)c1cc2occc2n1CC(=O)NC1CCC(C)CC1` (stereo not drawn), the double positive events runs as follows: (at 7.7 µM) 36.9%; under setting [1], 16.5%. This compound had a percent response (vesicle binding) (at 7.7 µM) of 348%.

As to `Cc1cc(C)nc(SCc2nnc(SCC(=O)O)n2-c2ccccc2)n1`, under “at 7.7 µM”, the double positive events amounted to 30.7% and the percent response (vesicle binding) came to 312%. This compound had a double positive events under setting [1] of 15.3%.

Take `CCOC(=O)c1cc(CC)sc1/N=C/C1C(=O)CCCC1=O`: under “at 7.7 µM”, the double positive events came to 13.7% and the percent response (vesicle binding) came out at 204%. For the same compound, the double positive events under setting [1] came out at 21.1%.

Where the note is “at 7.7 µM”, `COc1ccc(C(O)c2coc3ccc(O)c(CN(C)C)c23)cc1` (stereo not drawn) gave a double positive events of 11.2% and a percent response (vesicle binding) of 202%. Under setting [1], this compound displayed a double positive events of 21%.

In the case of `Cc1ccc2nc(COc3ccc(Cl)cc3)cc(=O)n2c1`, the double positive events is 14.3% (at 7.7 µM) and 10.4% under setting [1]. This compound registered a percent response (vesicle binding) (at 7.7 µM) of 143%.

Where the note is “at 7.7 µM”, `COc1ccccc1NC(=O)CSc1nc2ccccc2cc1Cc1ccccc1` returned a double positive events of 28.8% and a percent response (vesicle binding) of 311%. The compound further displayed a double positive events under setting [1] of 11.5%.

On to `CCN(CC)S(=O)(=O)c1ccc(NC(=O)C2c3ccccc3Oc3ccccc32)cc1`, for which, where the note is “at 7.7 µM”, the double positive events is 31.1% and the percent response (vesicle binding) amounted to 260%. The compound also returned a double positive events under setting [1] of 15.9%.

For the compound `Cc1onc(-c2ccccc2Cl)c1C(=O)Nc1cccc(-c2nc3ncccn3c2C)c1`, under “at 7.7 µM”, the double positive events stood at 8.4% and the percent response (vesicle binding) was determined as 95.8%. Under setting [1], this compound registered a double positive events of 29.6%.

`Nc1cc(C(=O)OCC(=O)c2ccc(CC(=O)N3CCOCC3)s2)ccc1Cl`: under “at 7.7 µM”, the double positive events was 26.9% and the percent response (vesicle binding) turned out to be 247%. In addition, under setting [1], the double positive events was 33.8%.

Turning to `O=C(CN(C(=O)CSc1nnc(COc2ccccc2)o1)c1ccc(F)cc1)NC1CCCCC1`, where the note is “at 7.7 µM”, the double positive events is 7.1% and the percent response (vesicle binding) turned out to be 295%. This compound also showed a double positive events under setting [1] of 24.3%.

Turning to `CCOC(=O)c1sc(NC(=O)C2CC(=O)N(c3ccccc3OC)C2)nc1C` (stereo not drawn), the double positive events by setting is: (at 7.7 µM) 18.2%; under setting [1], 23.6%. Under “at 7.7 µM”, this compound gave a percent response (vesicle binding) of 195%.

For the setting “at 7.7 µM”, `CC(C)c1ccc(NC(=O)C2CCCCC2C(=O)O)cc1` (stereo not drawn) came in with a double positive events of 10.8% and a percent response (vesicle binding) of 459%. The double positive events under setting [1] came out at 16.7%.

With `C[C@H](CO)N1C[C@H](C)[C@@H](CN(C)Cc2ccc(Cl)c(Cl)c2)Oc2ccc(NC(=O)Cn3cnnn3)cc2C1=O`, under “at 7.7 µM”, the double positive events was determined as 25.4% and the percent response (vesicle binding) came out at 563%. Under setting [1], this compound came in with a double positive events of 7.9%.

With `S=C(Nc1ccccn1)c1ccccn1`, where the note is “at 7.7 µM”, the double positive events was 12.9% and the percent response (vesicle binding) was 218%. Also, under setting [1], the double positive events stood at 16.1%.

Regarding `O=c1cc(CN2CCCc3ccccc32)nc2sccn12`, the double positive events by setting is: (at 7.7 µM) 7.8%; under setting [1], 34.5%. This compound also had a percent response (vesicle binding) (at 7.7 µM) of 91.2%.

With `COc1cccc(NC(=O)Cn2cc3c(n2)CCCCC3)c1`, the double positive events runs as follows: (at 7.7 µM) 27%; under setting [1], 10.7%. This compound also yielded a percent response (vesicle binding) (at 7.7 µM) of 569%.

On to `O=C(c1ccc(Br)s1)N1CCN(c2ccccn2)CC1`, for which, under “at 7.7 µM”, the double positive events amounted to 28.6% and the percent response (vesicle binding) came out at 326%. The compound further displayed a double positive events under setting [1] of 10.8%.

`C[C@H](CO)N1C[C@H](C)[C@@H](CN(C)C)Oc2c(NS(=O)(=O)c3ccccc3)cccc2C1=O`: where the note is “at 7.7 µM”, the double positive events turned out to be 22.9% and the percent response (vesicle binding) turned out to be 291%. Also, under setting [1], the double positive events is 9.5%.

Under “at 7.7 µM”, `CCC(C)n1c(=S)[nH]c2c(sc3ccc([N+](=O)[O-])cc32)c1=O` (stereo not drawn) registered a double positive events of 9.8% and a percent response (vesicle binding) of 286%. The compound also returned a double positive events under setting [1] of 36.2%.

Consider `CCOC(=O)c1c(N2C(=O)CC(Sc3ccccc3C(=O)O)C2=O)sc2c1CCCC2` (stereo not drawn), for which the double positive events is, setting by setting: (at 7.7 µM) 14.4%; under setting [1], 1.4%. This compound displayed a percent response (vesicle binding) (at 7.7 µM) of 334%.

Under “at 7.7 µM”, `O=C(CC1C(=O)NCCN1CC1CCCCC1)NCc1cc(F)ccc1F` (stereo not drawn) gave a double positive events of 12.7% and a percent response (vesicle binding) of 186%. Under setting [1], this compound returned a double positive events of 32.9%.

Under “at 7.7 µM”, `CCCNC(=O)NC(=O)CN1C(=O)NC(C)(c2ccc(C)cc2)C1=O` (stereo not drawn) yielded a double positive events of 6.9% and a percent response (vesicle binding) of 277%. The compound further returned a double positive events under setting [1] of 19.2%.
